Earlier results as cited in patent publication US11357742B2, “Methods for treating cancer” (X4 Pharmaceuticals, Inc., priority 2015, dated 2022).
At least one structure is not confirmed: it was looked up by name or label, or the drawing left a doubt.

System: renal cell carcinoma (RCC) xenografts
Details: sunitinib treatment; cited from earlier work

CCN(CC)CCNC(=O)c1c(C)[nH]c(/C=C2\C(=O)Nc3ccc(F)cc32)c1C [sunitinib]
infiltration of RCC xenografts with CD11b+/Gr-1+ MDSC: marked increase
